Experimental data reported in PubChem BioAssay AID1053120 (Broad Institute, 2014).
The source calls these results inconclusive, neither active nor inactive. How the calls were made is not given here.

Test: nonspecific luciferase activators in D54 LucT cells, dose response, counter-screen for N-linked glycosylation inhibitor project, cell-based, dry powder, set 2 (AID 1053120)
Settings: D54 LucT luciferase reporter (no NLG), luminescence, 24 h; at 19.5 µM (top of the series)

Compound: c1ccc(CSc2nnc(-c3ccccc3)o2)cc1
- luciferase activation: inconclusive: 66.7%
